Laboratory results reported in PMC7862700.
Only a part is listed here, and it is no random draw. At the low end of the ranking, values are background and their order means little.

How the values were obtained:
Experiment in all cases: DAPPL (digital affinity profiling via proximity ligation, sequencing)
Conditions in all cases: 10 mM Tris-HCl pH 7.5, 50 mM NaCl, 1 mM DTT, 4% glycerol, room temperature, 30 min; GST-TFs on glutathione beads, 16-mer random dsDNA library, 0.1% …; high values mean tight binding; double strand, one strand shown; scale: fold enrichment (6-mer frequency, TF over GST control)
ELK1 = target: T1, ELK1 (UniProt P19419)
T1 sequence: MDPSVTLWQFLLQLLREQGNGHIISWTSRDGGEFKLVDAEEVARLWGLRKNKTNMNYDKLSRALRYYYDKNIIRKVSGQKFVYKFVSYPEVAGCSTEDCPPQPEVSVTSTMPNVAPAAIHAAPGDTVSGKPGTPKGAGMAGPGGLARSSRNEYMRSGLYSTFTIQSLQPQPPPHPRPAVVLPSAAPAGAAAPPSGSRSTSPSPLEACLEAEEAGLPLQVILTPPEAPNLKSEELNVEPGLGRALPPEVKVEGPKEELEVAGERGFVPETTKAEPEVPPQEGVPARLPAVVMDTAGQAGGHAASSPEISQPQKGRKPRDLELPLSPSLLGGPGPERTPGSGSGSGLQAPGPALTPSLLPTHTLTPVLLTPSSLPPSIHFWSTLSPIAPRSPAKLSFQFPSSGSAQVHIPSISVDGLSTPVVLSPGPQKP

ELK3 = target: T2, ELK3 (UniProt P41970)
T2 sequence: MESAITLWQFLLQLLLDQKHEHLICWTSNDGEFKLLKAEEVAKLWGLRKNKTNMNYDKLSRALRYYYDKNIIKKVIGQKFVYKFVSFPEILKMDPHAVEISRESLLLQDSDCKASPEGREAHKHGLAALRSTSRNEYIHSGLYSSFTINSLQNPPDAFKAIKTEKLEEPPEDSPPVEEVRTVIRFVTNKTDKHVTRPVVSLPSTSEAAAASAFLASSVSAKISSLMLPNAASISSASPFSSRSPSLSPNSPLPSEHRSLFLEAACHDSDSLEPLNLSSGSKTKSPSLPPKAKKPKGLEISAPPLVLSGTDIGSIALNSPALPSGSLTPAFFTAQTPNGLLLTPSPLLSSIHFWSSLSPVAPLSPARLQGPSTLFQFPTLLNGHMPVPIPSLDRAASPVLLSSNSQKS

SPIC = target: T3, SPIC (UniProt Q8N5J4)
T3 sequence: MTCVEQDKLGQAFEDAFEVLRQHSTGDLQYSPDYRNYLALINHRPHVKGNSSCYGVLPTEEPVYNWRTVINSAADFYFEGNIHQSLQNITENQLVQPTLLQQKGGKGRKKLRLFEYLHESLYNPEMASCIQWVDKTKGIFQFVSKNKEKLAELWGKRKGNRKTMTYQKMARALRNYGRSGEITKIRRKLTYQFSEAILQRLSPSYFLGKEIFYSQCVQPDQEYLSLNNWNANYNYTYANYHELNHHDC

ETS2 = target: T4, ETS2 (UniProt P15036)
T4 sequence: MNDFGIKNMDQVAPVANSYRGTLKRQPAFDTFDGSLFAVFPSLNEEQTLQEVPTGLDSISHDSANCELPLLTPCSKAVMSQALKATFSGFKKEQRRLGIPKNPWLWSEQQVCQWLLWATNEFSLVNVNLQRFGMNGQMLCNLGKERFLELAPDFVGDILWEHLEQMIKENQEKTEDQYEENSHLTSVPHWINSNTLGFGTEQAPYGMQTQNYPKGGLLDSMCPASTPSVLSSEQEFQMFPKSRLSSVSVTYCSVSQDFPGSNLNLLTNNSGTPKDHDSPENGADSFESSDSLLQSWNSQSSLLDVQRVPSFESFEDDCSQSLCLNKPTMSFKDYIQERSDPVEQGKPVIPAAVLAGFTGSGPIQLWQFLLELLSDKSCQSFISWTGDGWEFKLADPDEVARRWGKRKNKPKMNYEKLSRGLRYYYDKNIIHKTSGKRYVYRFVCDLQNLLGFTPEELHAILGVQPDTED

ETV3 = target: T5, ETV3 (UniProt P41162-2)
T5 sequence: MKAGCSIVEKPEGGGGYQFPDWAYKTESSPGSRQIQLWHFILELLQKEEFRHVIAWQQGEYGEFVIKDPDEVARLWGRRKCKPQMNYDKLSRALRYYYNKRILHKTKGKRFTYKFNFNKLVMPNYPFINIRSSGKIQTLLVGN

| Sequence | binding signal (ELK1) | binding signal (ELK3) | binding signal (SPIC) | binding signal (ETS2) | binding signal (ETV3) |
| --- | --- | --- | --- | --- | --- |
| CACCAG | 0.795 | 0.701 | 0.761 | 0.726 | 0.75 |
| GAGTGC | 0.728 | 0.754 | 0.684 | 0.658 | 0.683 |
| CGGGCG | 0.434 | 0.412 | 0.362 | 0.427 | 0.439 |
| AGCACC | 0.924 | 0.984 | 0.922 | 0.872 | 0.908 |
| CAAGGG | 0.93 | 0.963 | 0.797 | 0.908 | 0.845 |
| GGCGAC | 0.894 | 0.813 | 0.835 | 0.859 | 0.821 |
| GGACAC | 0.781 | 0.753 | 0.716 | 0.814 | 0.807 |
| TGAGGA | 0.692 | 0.66 | 0.631 | 0.721 | 0.695 |
| GAGTGA | 0.42 | 0.407 | 0.342 | 0.383 | 0.375 |
| CACGAG | 0.826 | 0.957 | 0.841 | 0.834 | 0.813 |
| ACACGT | 0.857 | 0.789 | 0.839 | 0.799 | 0.773 |
| TGTCGA | 0.824 | 0.915 | 0.737 | 0.805 | 0.763 |
| GCCGGT | 0.709 | 0.553 | 0.601 | 0.641 | 0.724 |
| GGCAGT | 0.53 | 0.575 | 0.521 | 0.504 | 0.529 |
| GAGCGA | 0.583 | 0.642 | 0.573 | 0.66 | 0.674 |
| TCAGGA | 0.792 | 0.808 | 0.841 | 0.851 | 0.823 |
| CGGTTG | 0.824 | 0.883 | 0.712 | 0.765 | 0.77 |
| CCAGTG | 0.462 | 0.438 | 0.379 | 0.465 | 0.483 |
| GTCAAC | 0.917 | 0.943 | 0.859 | 0.928 | 0.942 |
| GTAGGC | 0.738 | 0.698 | 0.86 | 0.695 | 0.685 |

Already shown: an excerpt of the list.

| Sequence | binding signal (ELK1) | binding signal (ELK3) | binding signal (SPIC) | binding signal (ETS2) | binding signal (ETV3) |
| --- | --- | --- | --- | --- | --- |
| GCCGGT | 0.709 | 0.553 | 0.601 | 0.641 | 0.724 |
| GGCAGT | 0.53 | 0.575 | 0.521 | 0.504 | 0.529 |
